Our source for the AC50 values is PubChem BioAssay AID493014 (National Center for Advancing Translational Sciences (NCATS), 2011).

This is one part of the list. Shown are side measurements of this screen, not its main read-out; they come without a call. Most of these compounds were active or inconclusive in the main read-out, so they are no random draw. Potencies come from curve fits of mixed quality, noted in brackets.

This test in a line: qHTS Assay to Find Inhibitors of Chronic Active B-Cell Receptor Signaling. The note with it: ABC-DLBCL IkBa-CBG/CBR reporter, luminescence ratio (green luciferase fused to IkBa over red control in TMD8 lymphoma cells), 4 h. Summed up: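 Doxycycline induced both beetle luciferases in TMD8 lymphoma cells; IKK-driven degradation limits the IkappaBalpha-fused green signal, while red luminescence normalises for cell number and nonspecific effects. Compounds tested up to 46 uM, 4 hrs.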
On the technique in general: Quantitative high-throughput screening tests each substance at several concentrations.

The mark [1] stands for this setting: measured here: IkBa-CBG green luminescence.
Where [2] appears, read: measured here: CBR red luminescence, cell number.

Broadly, the AC50 is the concentration at which the activity in the assay is half-maximal. In the case of `S=c1[nH]ncn1/N=C/c1ccc(Br)cc1`, the AC50 under setting [1] is 35.5 µM [falling, single point]. On to `O=C(NNC(=O)c1cnccn1)c1ccc(Cl)c(Cl)c1`, for which the AC50 under setting [2] is 8.91 µM [falling, partial curve]. In the case of `CCCN(CC(=O)Nc1cccc(Br)c1)CC(=O)Nc1ccc(F)c(F)c1F`, the AC50 is, setting by setting: under setting [2], 23.1 µM [falling, partial curve, poor fit]; under setting [1], 18.4 µM [rising, partial curve, poor fit]. For `O=c1cc(CN2CCN(c3ccccc3F)CC2)c2cc3c(cc2o1)CCCC3`, the half-maximal activity concentration (AC50) under setting [2] is 25.9 µM [rising, single point]. The same measure, in the same setting: with `COc1ccc(CCNC(=O)CN2CCN(S(=O)(=O)c3ccc(Cl)cc3)CC2)cc1OC` the figure was 7.31 µM [falling, partial curve, poor fit]. As to `COc1ccc(OC)c(-c2nnc3n2N=C(c2ccc(OC)c(OC4CCOC4)c2)CS3)c1` (configuration not stated), the AC50 by setting is: under setting [2], 1.64 µM [rising, partial curve, poor fit]; under setting [1], 1.64 µM [falling, full curve].

In the case of `CCOC(=O)c1ccc(NC(=O)COc2ccc(CNCCO)cc2OCC)cc1`, the concentration at half-maximal activity (AC50) under setting [2] is 35.5 µM [falling, single point].

For `CCOC(=O)c1ccc(-c2ccc(C=O)o2)cc1`, the AC50 under setting [2] was 14.1 µM [falling, single point]. Same read-out and setting: with `O=C(N/N=C/c1ccc([N+](=O)[O-])cc1)c1cc2ccccc2o1` the figure was 7.94 µM [rising, partial curve, poor fit]; with `COc1ccc(-c2cccc(C(=O)N3CCOCC3)c2)cc1`, 0.501 µM [rising, full curve, poor fit]; with `CS(=O)(=O)N1CCN(c2ccccc2NC(=O)C(c2ccccc2)c2ccccc2)CC1`, 3.66 µM [falling, partial curve]. `Cc1ccc2nc(NC(=O)CSc3[nH]c(=O)ncc3C)sc2c1`: the concentration at half-maximal activity (AC50) under setting [2] is 20 µM [falling, partial curve, poor fit]. For `Brc1ccc(-c2nc(-c3ccccn3)no2)o1`, under setting [2], the AC50 is 14.6 µM [falling, partial curve, poor fit]. Take `COc1ccc2cc(C(=O)C3CCCN(C(=O)c4cnccn4)C3)ccc2c1` (configuration not stated): the concentration at half-maximal activity (AC50) under setting [2] is 20 µM [falling, single point]. Same read-out and setting: with `O=C1Nc2ccccc2Oc2cc([N+](=O)[O-])cc(Oc3ccccc3)c21` the figure was 20.6 µM [falling, single point]; with `CCCn1c(N)c(C(=O)CSc2nc3ccccc3c(=O)n2Cc2ccccc2)c(=O)[nH]c1=O`, 12.6 µM [rising, partial curve]. As to `Cc1cc(C(=O)N/N=C/c2ccc([N+](=O)[O-])cc2)c2ccccc2n1`, the AC50 under setting [2] was 35.5 µM [rising, single point]. As for `CS(=O)(=O)N1CCN(C(=O)Nc2ccccc2)CC1`, the AC50 under setting [2] was 1 µM [rising, full curve, poor fit]. Still for that read-out and setting: with `Cc1ccc(-n2c(SCc3ccccc3F)nc3[nH]ncc3c2=O)cc1Cl` the figure was 25.1 µM [falling, single point]; with `COCc1[nH]nc2c1C(c1ccccc1OC)C(C#N)=C(N)O2` (configuration not stated), 1.3 µM [falling, full curve]. In the case of `Cc1nn(C)cc1CNC(=O)COc1ccc(Cl)cc1Cl`, the half-maximal activity concentration (AC50) is 6.51 µM [rising, full curve, poor fit] under setting [2] and 23.1 µM [falling, partial curve, poor fit] under setting [1]. In the case of `COc1ccc(C(F)(F)F)cc1N/C=C/c1nnnn1-c1ccc(C)cc1`, the AC50 under setting [2] is 14.1 µM [rising, partial curve]. In the case of `CCN1C(=O)C(CC(=O)Nc2ccc(F)cc2)N(Cc2ccc3c(c2)OCO3)C1=S` (configuration not stated), under setting [2], the concentration at half-maximal activity (AC50) was 8.91 µM [falling, partial curve, poor fit]. `COc1ccccc1CNC(=O)c1ccccc1OC`: the concentration at half-maximal activity (AC50) under setting [2] is 0.00461 µM [falling, full curve, poor fit]. On the same count and under the same terms, with `Cc1ccc(NC(=O)c2cc(S(=O)(=O)N3CCC4(CC3)OCCO4)ccc2F)cc1Cl` the figure was 6.31 µM [falling, full curve, poor fit]; with `CCOc1cccc(C(=O)Nc2ccc(-c3nc4ncccc4o3)cc2C)c1`, 2.51 µM [rising, partial curve, poor fit]; with `O=C(CCNc1ccc(F)cc1)c1cc2ccccc2o1`, 5.62 µM [falling, partial curve].

Consider `O=[N+]([O-])c1ccc(CSc2ncnc3c2ncn3[C@@H]2O[C@H](CO)[C@@H](O)[C@H]2O)cc1`, for which, under setting [2], the AC50 is 18.4 µM [rising, single point].

In the case of `O=C(Nc1ccc(C(=O)O)cc1)/C(=C\c1ccc([N+](=O)[O-])cc1)NC(=O)c1ccc(Br)cc1`, the AC50 under setting [2] is 35.5 µM [falling, single point]. Still for that read-out and setting: with `NC(=O)CSc1nnc(NC(=O)c2ccc3ccccc3c2)s1` the figure was 1.84 µM [falling, full curve]; with `COc1ccccc1/C=C/C(=O)c1c2c(c(C)[nH]c1=O)CCCC2`, 0.631 µM [falling, full curve, poor fit]. Still for that read-out and setting: with `CN(C)c1cccc(C(=O)OCC(=O)Nc2ccccc2Sc2ccccc2)c1` the figure was 20.6 µM [falling, single point]. As to `CC(=O)c1cc(C(c2csc(C(C)=O)c2)c2csc(C(C)=O)c2)cs1`, the half-maximal activity concentration (AC50) under setting [2] is 20.6 µM [rising, single point]. Same read-out and setting: with `Cc1cc(C)c2c(N)c(C(=O)Nc3ccc(F)cc3)sc2n1` the figure was 11.2 µM [falling, partial curve]; with `CCN(CC)S(=O)(=O)c1cccc(C(=O)Nc2ccccc2C(=O)Nc2ccc(Cl)cc2)c1`, 31.6 µM [rising, single point]; with `O=C(C1CC(=O)N(c2ccc(Br)cc2)C1)N1CCCC1` (configuration not stated), 3.55 µM [rising, partial curve, poor fit].

With `COc1ccc(C(=O)NN(C)c2nc(C(F)(F)F)nc3ccccc23)cc1`, the half-maximal activity concentration (AC50) under setting [2] was 0.251 µM [rising, full curve, poor fit] and the AC50 under setting [1] is 0.316 µM [falling, full curve, poor fit]. With `CCCCC(=O)Nc1nnc(S(=O)(=O)N(CC)c2ccc(OC)cc2)s1`, under setting [2], the AC50 was 35.5 µM [falling, single point]. As to `O=C(O)c1ccc(NC(=S)NC(=O)c2ccc(-c3ccc(Br)cc3)o2)cc1`, the AC50 under setting [2] was 0.316 µM [falling, full curve, poor fit]. As for `COC(=O)[C@@]1(C)[C@H]2C(=O)N(Cc3ccccc3)C(=O)[C@H]2[C@H]2CN=C(SCC3CC3)N21`, the AC50 under setting [2] is 29.1 µM [rising, partial curve, poor fit]. The same measure, in the same setting: with `O=C(c1ccc(F)cc1)N(Cc1cccs1)C1CCS(=O)(=O)C1` (configuration not stated) the figure was 20 µM [rising, single point]; with `O=C1CC(NC23CC4CC(CC(C4)C2)C3)C(=O)N1c1ccc2c(c1)OCO2` (configuration not stated), 20.6 µM [rising, partial curve, poor fit]. For the compound `COc1cc(C2C(C#N)=C(N)Oc3cc4c(cc32)OCO4)cc(OC)c1OC` (configuration not stated), the half-maximal activity concentration (AC50) under setting [2] is 0.398 µM [rising, full curve, poor fit] and the concentration at half-maximal activity (AC50) under setting [1] is 0.631 µM [falling, full curve].

As for `CCOc1ccc(C(c2c(NC(=O)c3ccccc3)sc(C)c2C)N2CCN(C)CC2)cc1` (configuration not stated), under setting [2], the concentration at half-maximal activity (AC50) is 29.1 µM [falling, single point]. Still for that read-out and setting: with `Cn1c(CN2CCCCC2)nc2cc(NC(=O)c3cccs3)ccc21` the figure was 20.6 µM [falling, partial curve, poor fit]; with `Cc1cccc(NC(=O)CSc2nccn2Cc2ccco2)c1`, 1.26 µM [falling, partial curve, poor fit]. Same read-out and setting: with `COc1ccc(CN(C)C(=O)CNC(=O)c2ccc(C)cc2)cc1` the figure was 35.5 µM [falling, partial curve, poor fit]. For `CCOc1ccc(C(=O)NCC2(c3ccccc3)CCOCC2)cc1`, the AC50 under setting [2] is 31.6 µM [rising, single point].

As to `O=C(c1ccc2c(c1)N(Cc1cccc(Cl)c1)C(=O)c1ccccc1S2(=O)=O)N1CCCC1`, the concentration at half-maximal activity (AC50) under setting [2] is 12.6 µM [rising, single point]. On the same count and under the same terms, with `CCOc1ccc2nc(NC(=O)CSc3nc4ccccc4c(=O)n3Cc3ccco3)sc2c1` the figure was 0.411 µM [falling, partial curve, poor fit]; with `COC(=O)c1c(C)[nH]c(O)c1C=Nc1ccc(Oc2ccccc2)cc1`, 17.8 µM [rising, single point].

Take `COc1ccc(-c2cc(=O)oc3c(C)c(OC(C)C(=O)Nc4ccc(CN5CCOCC5)cc4)ccc23)cc1` (configuration not stated): the AC50 under setting [2] is 20 µM [falling, partial curve, poor fit].

Take `CCCOC(=O)COC(=O)c1ccccc1NC(=O)c1ccccc1`: the concentration at half-maximal activity (AC50) under setting [2] was 14.6 µM [falling, single point]. For the compound `COc1cccc(/C=C(\CC(=O)O)c2nc3ccccc3s2)c1`, the half-maximal activity concentration (AC50) under setting [2] was 20 µM [falling, partial curve]. On to `O=C(Nc1nnc(C2CC2)s1)c1cccc(S(=O)(=O)N2CC(c3ccccc3)CC2=O)c1` (configuration not stated), for which, under setting [2], the half-maximal activity concentration (AC50) is 8.91 µM [falling, partial curve]. On the same count and under the same terms, with `COc1ccccc1-c1noc(-c2ccncc2)n1` the figure was 0.00517 µM [rising, full curve, poor fit]. On to `Cc1nc2ccc3nc(NC(=O)C4COc5ccccc5O4)sc3c2s1` (configuration not stated), for which the AC50 under setting [2] is 8.2 µM [falling, partial curve, poor fit]. Turning to `COc1cc(/C=N/NC(=O)c2cc(-c3cccn3C)n[nH]2)cc(OC)c1OC`, under setting [2], the concentration at half-maximal activity (AC50) is 7.94 µM [falling, partial curve, poor fit]. As for `C=CCNc1oc(-c2cccc(Cl)c2)nc1C#N`, the half-maximal activity concentration (AC50) under setting [1] is 29.1 µM [falling, single point]. Consider `CCCCCCC(=O)N/N=C/c1ccc(Br)cc1`, for which the AC50 under setting [2] was 18.4 µM [rising, single point]. Regarding `COc1ccccc1NS(=O)(=O)c1cccc(C(=O)N/N=C/c2cn(-c3ccccc3)nc2-c2ccccc2)c1`, the AC50 by setting is: under setting [2], 6.51 µM [rising, partial curve, poor fit]; under setting [1], 23.1 µM [falling, partial curve, poor fit].
